Laboratory results as given in PubChem BioAssay AID1117319 (Southern Research Institute, 2015).
In all, about 260,000 compounds went through this assay and about 1,500 (0.58%) were called active. This list was built around the results that the source calls inconclusive (neither active nor inactive); the mix of calls is not that of the screen.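 How the source made its calls: active means inhibition above a set limit at one or more doses, reproduced on every date tested; inconclusive means results disagree between test dates, or hit never tested in dose response; inactive means the rest.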

Sequences of proteins named here, by UniProt entry; tags and fusion partners are left off. A change or cut given only in a name is not applied to a line headed by its entry.
UniProt P69720: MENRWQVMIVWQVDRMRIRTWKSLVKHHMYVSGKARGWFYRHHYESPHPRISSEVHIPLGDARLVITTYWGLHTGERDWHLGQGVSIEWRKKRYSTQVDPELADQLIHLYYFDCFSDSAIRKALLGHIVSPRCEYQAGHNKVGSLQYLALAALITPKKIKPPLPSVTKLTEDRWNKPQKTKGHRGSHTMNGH
UniProt P69721: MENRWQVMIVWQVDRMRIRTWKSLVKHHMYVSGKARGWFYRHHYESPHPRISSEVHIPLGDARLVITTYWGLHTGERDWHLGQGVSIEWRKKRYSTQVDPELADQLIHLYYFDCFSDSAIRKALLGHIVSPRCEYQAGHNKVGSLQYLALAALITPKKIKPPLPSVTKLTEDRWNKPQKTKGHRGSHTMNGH
UniProt P69722: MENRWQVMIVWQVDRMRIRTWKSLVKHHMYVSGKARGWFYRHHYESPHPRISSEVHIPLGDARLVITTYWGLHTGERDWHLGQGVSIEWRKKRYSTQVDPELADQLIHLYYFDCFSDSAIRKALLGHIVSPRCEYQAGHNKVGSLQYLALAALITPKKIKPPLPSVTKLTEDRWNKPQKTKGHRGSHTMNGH
UniProt P69723: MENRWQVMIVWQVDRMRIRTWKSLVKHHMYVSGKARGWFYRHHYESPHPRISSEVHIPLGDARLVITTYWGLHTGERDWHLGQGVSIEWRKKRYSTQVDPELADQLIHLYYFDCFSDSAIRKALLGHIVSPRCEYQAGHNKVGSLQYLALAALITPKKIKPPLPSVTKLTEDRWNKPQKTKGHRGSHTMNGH
UniProt Q9HC16: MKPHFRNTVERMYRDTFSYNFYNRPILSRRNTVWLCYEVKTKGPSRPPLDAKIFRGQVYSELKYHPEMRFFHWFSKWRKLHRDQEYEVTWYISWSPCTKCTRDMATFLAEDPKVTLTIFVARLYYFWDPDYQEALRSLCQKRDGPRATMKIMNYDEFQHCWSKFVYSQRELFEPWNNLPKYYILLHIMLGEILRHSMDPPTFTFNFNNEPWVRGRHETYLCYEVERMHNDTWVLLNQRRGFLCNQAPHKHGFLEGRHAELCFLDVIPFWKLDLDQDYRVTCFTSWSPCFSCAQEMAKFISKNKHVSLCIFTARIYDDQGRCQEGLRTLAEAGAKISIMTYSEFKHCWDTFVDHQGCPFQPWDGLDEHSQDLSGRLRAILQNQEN

The compounds below were run against Virion infectivity factor (Human immunodeficiency virus type 1 group M subtype B (isolate BH10)) + Virion infectivity factor (Human immunodeficiency virus type 1 group M subtype B (isolate BRU/LAI)) + Virion infectivity factor (Human immunodeficiency virus type 1 group M subtype B (isolate PCV12)) + Virion infectivity factor (Human immunodeficiency virus type 1 group M subtype B (isolate HXB2)) + DNA dC->dU-editing enzyme APOBEC-3G (Homo sapiens) (UniProt P69720+P69721+P69722+P69723+Q9HC16) (assay: inhibitors of Vif binding to APOBEC3G peptide, primary screen, biochemical, TR-FRET, GST-Vif 1-94, biotin-A3G peptide, dose response retest (AID 1117319;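 further: Vif residues 1-94 fused to GST binding biotinylated APOBEC3G peptide 110-148; 0% = full assay without inhibitor and 100% = GST in place of GST-Vif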)). Conditions: hits give high values.

| SMILES | inhibition |
| --- | --- |
| O=c1c2[nH]c3ccccc3c2nc2n1CCCS2 | inconclusive: 40.6% |
| O=C(CN1CCN(Cc2ccc(F)cc2Cl)C1=O)NCCc1ccccc1 | inconclusive: 51.9% |
| Cc1ccc(/C=C2\SC(=S)N(C3CCS(=O)(=O)C3)C2=O)cc1 (configuration not stated) | inactive: 6.18% |
| COC(=O)c1ccc(NC(=O)c2snnc2-c2ccccc2)cc1 | inconclusive: 40.5% |
| COc1ccc2c3c(cccc13)C(=O)N(O)C2=O | inconclusive: 50.9% |
| OCCNc1nc2nonc2nc1NCCO | inconclusive: 51.4% |
| Nn1cc(-c2ccccc2)nc1SCC(=O)N1CCN(S(=O)(=O)c2ccc(Cl)cc2)CC1 | inconclusive: 34.9% |
| CC(C)(Oc1ccc(Cl)cc1)C(=O)N1CCN(c2ccccn2)CC1 | inconclusive: 34.2% |
| COCCNC(=O)c1nn(-c2cc(OC)cc(OC)c2)c(=O)c2ccccc12 | inconclusive: 50.9% |
| O=C1C2C3CCC(C3)C2C(=O)N1Cc1ccco1 (configuration not stated) | inactive: -17.6% |
| CC(=O)C(C)Oc1cc(C)cc2oc(=O)c(C)c(C)c12 (configuration not stated) | inconclusive: 34% |
| NC(=NC(=O)c1ccc(Cl)cc1)N1N=CCC1c1ccccc1 (configuration not stated) | inconclusive: 33% |
| CN1C(=O)C(Cl)(Cl)C(=O)c2ccccc21 | inconclusive: 48.3% |
| Cn1c(COc2ccc3ccccc3c2)nnc1SCC(=O)O | inconclusive: 42.8% |
| COCCCNC(=O)C(F)(F)C(F)(F)C(=O)NCCCOC | inconclusive: 33.3% |
| O=C(Nc1ccc(F)cc1F)c1cncc(Br)c1 | inconclusive: 55.8% |
| Cc1ccc(NC(=S)N(CCN(C)C)Cc2cccs2)cc1 | inconclusive: 35.5% |
| CC1CC(C)CN(CCC(=O)Nc2cccc(Cl)c2)C1 (configuration not stated) | inconclusive: 36% |
| COC(=O)[C@@]1(Cc2ccc(F)cc2)[C@H]2c3cc(C(=O)N(C)C)n(Cc4ccccc4)c3C[C@H]2CN1C(=O)c1ccccc1 | inconclusive: 34.3% |

| SMILES | inhibition |
| --- | --- |
| Cc1nc(NC(=O)c2ccc([N+](=O)[O-])cc2Cl)sc1C(=O)N(C)C | inconclusive: 43.9% |
| O=S1(=O)CCC(SCc2nc3sccn3c2Br)C1 (configuration not stated) | inconclusive: 33.2% |
| COC(=O)c1cccc(NC(=O)C(C)N2C(=O)c3ccccc3C2=O)c1 (configuration not stated) | inconclusive: 59.4% |
| CC(C)NS(=O)(=O)c1ccc(CCC(=O)NCc2cccnc2)cc1 | inconclusive: 35.1% |
| CCOc1ccc(OCC)c(NC(=O)C(NS(=O)(=O)c2ccc3c(c2)oc(=O)n3C)C(C)C)c1 (configuration not stated) | inconclusive: 37.2% |
| CCn1cc(S(=O)(=O)CC(=O)NC2CCCCC2)c2ccccc21 | inactive: -2.6% |
| O=C(CCl)Nc1cc2[nH]c(=O)[nH]c2cc1Br | inconclusive: 49.5% |
| COc1ccccc1C(C[N+](=O)[O-])c1c(N)n(C)c(=O)n(C)c1=O (configuration not stated) | inconclusive: 37.2% |
| Cc1ccccc1C1N(c2nccs2)C(=O)C2CCCN21 (configuration not stated) | inconclusive: 38.6% |
| COCCn1nnnc1CN(Cc1cccnc1)Cc1cc2cc(OC)ccc2[nH]c1=O | inconclusive: 59.8% |
| O=C(NC1CCCCC1)C12CC3CC(CC(Cl)(C3)C1)C2 | inactive: 9.37% |
| O=C(O)c1cc(S(=O)(=O)NCC2CCCO2)ccc1Cl (configuration not stated) | inconclusive: 35.8% |
| CCCCC1=CC2=C(c3ccco3)C(=O)C(C)(OC(=O)c3ccc(OC)cc3)C(=O)C2=CN1Cc1ccc(OC)cc1 (configuration not stated) | inconclusive: 46.9% |
| CC(=O)NC(CC(=O)NCCN1C(=O)S/C(=C\c2ccccc2)C1=O)c1ccccc1 (configuration not stated) | inconclusive: 51.8% |
| COc1nc(-c2ccccc2)ccc1-c1noc(-c2cccnc2)n1 | inconclusive: 54.5% |
| C=C(C)CC1Nc2ccccc2NC1CC(=C)C (configuration not stated) | inconclusive: 53.4% |
| Cc1cc(C(=O)COC(=O)c2cc(Cl)c(O)c(Cl)c2)c(C)n1C | inconclusive: 37% |
| O=C(CCS(=O)(=O)c1ccc(Br)cc1)NCc1cccs1 | inconclusive: 33% |
| CCOC(=O)c1ccc(COC(=O)CNC(=O)CNC(=O)c2ccc(OC)cc2)o1 | inconclusive: 34.7% |

| SMILES | inhibition |
| --- | --- |
| O=C1CC(C(=O)Nc2ccc(Cl)cc2)S/C(=N\N=C\c2ccco2)N1 (configuration not stated) | inconclusive: 48.6% |
| CCCN1C2=C(C(=O)CC(C)(C)C2)C(c2ccc(F)cc2)C2=C1c1ccccc1C2=O (configuration not stated) | inconclusive: 33.9% |
| CCCNC(=O)c1cc(S(=O)(=O)N2CCc3ccccc32)ccc1F | inconclusive: 53% |
| CN(CCNC(=O)C1CC(=O)N(c2ccc(F)c(Cl)c2)C1)Cc1ccccc1 (configuration not stated) | inconclusive: 58.5% |
| CCC1=[N+](CC(=O)c2ccc(Br)cc2)CCn2c(C)ccc21 | inconclusive: 65.1% |
| Cc1n[nH]c(C)c1S(=O)(=O)N(CC(=O)N1CCc2ccccc21)c1ccc(C(C)C)cc1 | inconclusive: 42.3% |
| Cc1ccc(Nc2nc(N)nc(CSCCO)n2)cc1 | inconclusive: 34.6% |
| Cc1ccc(S(=O)(=O)/C(C#N)=C/c2c(N3CCN(C)CC3)nc3c(C)cccn3c2=O)cc1 | inconclusive: 34% |
| COc1ccccc1NC(=O)NCCN1CCN(C(=O)Nc2ccccc2OC)CC1 | inconclusive: 49.9% |
| O=C(c1nn2c(C(F)(F)F)cc(-c3ccco3)nc2c1Br)N1CCCc2ccccc21 | inconclusive: 33.1% |
| Cc1cn([C@H]2C[C@H](O)[C@@H](CCC(=O)NCc3ccco3)O2)c(=O)[nH]c1=O | inactive: 3.31% |
| Cc1cc(=O)n(C)c2ccccc12 | inactive: -5.08% |
| N#Cc1cnc(N)c(Br)c1 | inactive: -0.24% |
| CS(=O)(=O)Cc1nc2ccccc2oc1=O | inconclusive: 56% |
| O=C(Cn1c(CO)nc2ccccc21)NCc1ccc2c(c1)OCO2 | inconclusive: 39.4% |
| Cc1ccc(N(Cc2ccccc2F)S(C)(=O)=O)cc1C | inconclusive: 42.1% |
| Cc1ccc2c(c1)-c1cc(C)nn1C(c1ccc3c(c1)OCO3)N2 (configuration not stated) | inconclusive: 33.7% |
| Cc1ccn2cc(C(=O)Nc3ccccc3N3CCOCC3)nc2c1 | inconclusive: 46.4% |
| CCOc1ccc(-n2c(SCC(N)=O)nc3c(c2=O)SCC3)cc1 | inconclusive: 34.3% |

Single values from the entries so far.
In inhibition, O=C(Nc1ccc(F)cc1F)c1cncc(Br)c1 shows inconclusive: 55.8%
In inhibition, Cc1cc(=O)n(C)c2ccccc12 shows inactive: -5.08%
In inhibition, CN(CCNC(=O)C1CC(=O)N(c2ccc(F)c(Cl)c2)C1)Cc1ccccc1 (configuration not stated) shows inconclusive: 58.5%
In inhibition, Cc1ccc2c(c1)-c1cc(C)nn1C(c1ccc3c(c1)OCO3)N2 (configuration not stated) shows inconclusive: 33.7%
In inhibition, CCOC(=O)c1ccc(COC(=O)CNC(=O)CNC(=O)c2ccc(OC)cc2)o1 shows inconclusive: 34.7%
